In paper PMC5352711 one finds binding data, which are given here for 2 substances.

Sequences of proteins named here, by UniProt entry; tags and fusion partners are left off. A change or cut given only in a name is not applied to a line headed by its entry.
UniProt Q8CFN5: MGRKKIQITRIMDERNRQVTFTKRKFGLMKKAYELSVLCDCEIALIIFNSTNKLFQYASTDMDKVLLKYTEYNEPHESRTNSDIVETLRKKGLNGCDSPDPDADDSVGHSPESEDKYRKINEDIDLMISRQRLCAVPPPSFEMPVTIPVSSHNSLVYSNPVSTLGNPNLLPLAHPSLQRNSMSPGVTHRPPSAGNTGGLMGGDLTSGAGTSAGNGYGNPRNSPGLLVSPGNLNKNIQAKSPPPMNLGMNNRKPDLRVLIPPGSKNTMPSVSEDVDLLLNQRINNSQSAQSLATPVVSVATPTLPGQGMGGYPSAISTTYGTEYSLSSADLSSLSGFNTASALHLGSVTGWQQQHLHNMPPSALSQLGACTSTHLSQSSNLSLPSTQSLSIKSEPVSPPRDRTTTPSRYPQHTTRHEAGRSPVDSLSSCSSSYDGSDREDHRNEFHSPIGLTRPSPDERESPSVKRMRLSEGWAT
UniProt P11275: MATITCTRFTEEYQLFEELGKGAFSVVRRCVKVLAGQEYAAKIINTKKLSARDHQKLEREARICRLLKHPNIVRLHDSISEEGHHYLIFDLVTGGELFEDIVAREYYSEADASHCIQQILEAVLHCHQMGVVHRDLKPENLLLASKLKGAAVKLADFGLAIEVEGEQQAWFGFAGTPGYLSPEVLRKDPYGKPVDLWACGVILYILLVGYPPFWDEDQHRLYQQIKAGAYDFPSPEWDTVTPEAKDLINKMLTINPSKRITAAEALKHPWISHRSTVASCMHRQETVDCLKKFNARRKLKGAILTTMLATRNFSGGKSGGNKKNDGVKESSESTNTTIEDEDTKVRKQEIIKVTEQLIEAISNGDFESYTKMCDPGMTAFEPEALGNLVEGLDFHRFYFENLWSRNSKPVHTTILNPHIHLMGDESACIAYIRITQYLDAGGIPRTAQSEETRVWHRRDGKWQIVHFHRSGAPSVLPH

In one assay the target is Mef2c-Myc (UniProt Q8CFN5). Put plainly: co-IP; Myc-magnetic beads pull on Mef2c::Myc; DaCaMKII::GFP detected by immunoblot in the bound fraction; data not shown. Background: A western blot detects proteins with antibodies after separation by electrophoresis.
Assay [1] deals with DaCaMKII::eGFP (CaMKII-T286D C-terminal fused to eGFP) (rat) (UniProt P11275). In words: co-IP; GFP monoclonal antibody magnetic beads pull on DaCaMKII::eGFP; lysates of HEK293 cells co-transfected with Mef2c-Myc and DaCaMKII::eGFP at 4:3 ratio; 150 ug protein, 15 min at 4 C; 4 washes with 50 mM Tris-HCl pH 7.5, 150 mM NaCl, 1% NP-40; blot with anti-myc.

These are yes or no findings as the source states them, for the method shown. In cells and extracts the contact can be indirect. Some binding calls cover weakened binding; strength is not graded here.

As to “DaCaMKII::eGFP (CaMKII-T286D C-terminal fused to eGFP) (from UniProt P11275 1-478) (enzyme)”, the binding entry in the assay with Mef2c-Myc was “binds”. Regarding Mef2c-Myc (from UniProt Q8CFN5 1-474), in assay [1], the binding result is “binds”.
